Results published in patent US20260108546A1 (ELI LILLY AND COMPANY, priority 2024, published 2026).
Some of these results come from one statement about several compounds together.

Biological target: T1, hGIP-R (Homo sapiens, UniProt P48546)
T1 construct: expressed in transfected cells; host or cells: HEK-293 clonal cell lines
T1 sequence (P48546 22-466): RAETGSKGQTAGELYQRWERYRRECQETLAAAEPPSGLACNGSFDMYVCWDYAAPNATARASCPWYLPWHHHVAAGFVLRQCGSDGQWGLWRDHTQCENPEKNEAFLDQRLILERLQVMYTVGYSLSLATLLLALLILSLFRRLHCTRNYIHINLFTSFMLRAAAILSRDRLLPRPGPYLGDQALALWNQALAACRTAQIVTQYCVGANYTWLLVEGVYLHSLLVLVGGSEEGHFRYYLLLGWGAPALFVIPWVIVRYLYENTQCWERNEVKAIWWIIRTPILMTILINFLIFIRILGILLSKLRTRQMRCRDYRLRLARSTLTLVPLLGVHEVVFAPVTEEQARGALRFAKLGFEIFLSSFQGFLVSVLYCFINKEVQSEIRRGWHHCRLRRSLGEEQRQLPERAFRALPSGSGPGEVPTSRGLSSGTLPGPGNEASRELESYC
Test: Functional hGIP-R Assay (cAMP formation, HTRF)
Format: cell-based
Settings: cAMP formation in HEK-293 clonal cell lines expressing hGIP-R; 30 min at 37° C.; 0.1% bovine casein; relative EC50 vs. maximal response of human GIP (1-42) OH
Description: Functional activity was determined using CAMP formation in HEK-293 clonal cell lines expressing hGIP-R. hGIP-R receptor expressing cells were treated with compound (20 point concentration-response curve in DMSO, 2-fold Labcyte Echo direct dilution, 384 well plate Corning Cat #3570) in DMEM (Gibco Cat #31053) supplemented with 1× GlutaMAX™ (Gibco Cat #35050), 0.1% bovine casein (Sigma C4765-10ML), 250 μM IBMX (3-Isobutyl-1-methylxanthine, Acros Cat #228420010) and 20 mM HEPES (Gibco Cat #15630) in a 20 μL assay volume (final DMSO concentration was 1%). After a 30 min incubation at 37° C., the resulting increase in intracellular cAMP was quantitatively determined using the Revvity CAMP Dynamic 2 HTRF Assay Kit (62AM4PEJ). Briefly, cAMP levels within the cell were detected by adding the cAMP-d2 conjugate in cell lysis buffer (10 μL) followed by the antibody anti-cAMP-Eu^3+-Cryptate, also in cell lysis buffer (10 μL). The resulting competitive assay was incubated for at least 60 min at RT, then detected using a BMG Labtech PHERAstar FSX instrument with excitation at 320 nm and emission at 665 nm and 620 nm. PHERAstar units (emission at 665 nm/620 nm*10,000) are inversely proportional to the amount of cAMP present and were converted to nM cAMP per well using a CAMP standard curve. The amount of cAMP generated (nM) in each well was converted to a percent of the maximal response observed with human GIP (1-42) OH. A relative EC50 value and percent top (Emax) were derived by non-linear regression analysis using the percent maximal response vs. the concentration of compound added, fitted to a four-parameter logistic equation.

For `[2H]C([2H])([2H])n1cc(C[C@H](C(=O)NC(C)(C)Cn2nc(C(F)(F)F)cc2-c2cnc(C(C)(C)O)nc2)N2CC[C@@]3(C[C@@H]3c3ccc(-c4cnc5nn(C6CC6)cc5c4)nc3C)C2=O)cn1` [Example 191, (R)-2-((1R,3R)-1-(6-(2-cyclopropyl-2H-pyrazolo[3,4-b]pyridin-5-yl)-2-methylpyridin-3-yl)-4-oxo-5-azaspiro[2.4]heptan-5-yl)-N-(1-(5-(2-(2-hydroxypropan-2-yl)pyrimidin-5-yl)-3-(trifluoromethyl)-1H-pyrazol-1-yl)-2-methylpropan-2-yl)-3-(1-(methyl-d3)-1H-pyrazol-4-yl)propanamide], which EC50 is on record?
Its EC50 is at most 300 nM.

Which EC50 does the source give for `Cn1cc2cc(-c3ccc([C@H]4C[C@@]45CCN([C@H](Cc4cnn(C(F)F)c4)C(=O)NC(C)(C)Cn4nc(C(F)(F)F)cc4-c4ccn(C(F)F)c(=O)c4)C5=O)c(F)c3)cnc2n1` [Example 134, (R)-3-(1-(Difluoromethyl)-1H-pyrazol-4-yl)-N-(1-(5-(1-(difluoromethyl)-2-oxo-1,2-dihydropyridin-4-yl)-3-(trifluoromethyl)-1H-pyrazol-1-yl)-2-methylpropan-2-yl)-2-((1S,3R)-1-(2-fluoro-4-(2-methyl-2H-pyrazolo[3,4-b]pyridin-5-yl)phenyl)-4-oxo-5-azaspiro[2.4]heptan-5-yl)propanamide] here?
The EC50 was at most 300 nM.

Which EC50 does the source give for `Cc1nc(-c2cnc3nc(C4CC4)cn3c2)ccc1[C@H]1C[C@@]12CCN([C@H](Cc1cnn(C(F)F)c1)C(=O)NC(C)(C)Cn1nc(C(F)(F)F)cc1-c1cnc(C(C)(C)O)nc1)C2=O` [Example 158, (R)-2-((1R,3R)-1-(6-(2-cyclopropylimidazo[1,2-a]pyrimidin-6-yl)-2-methylpyridin-3-yl)-4-oxo-5-azaspiro[2.4]heptan-5-yl)-3-(1-(difluoromethyl)-1H-pyrazol-4-yl)-N-(1-(5-(2-(2-hydroxypropan-2-yl)pyrimidin-5-yl)-3-(trifluoromethyl)-1H-pyrazol-1-yl)-2-methylpropan-2-yl)propanamide] here?
Its EC50 is at most 300 nM.

How did the EC50 turn out when `COc1nnc(C)cc1-c1cc(C(F)(F)F)nn1CC(C)(C)NC(=O)[C@@H](Cc1cnn(C(F)F)c1)N1CC[C@@]2(C[C@@H]2c2ccc(-c3cnc4nn(C)cc4c3)nc2C)C1=O` [Example 180, (R)-3-(1-(difluoromethyl)-1H-pyrazol-4-yl)-N-(1-(5-(3-methoxy-6-methylpyridazin-4-yl)-3-(trifluoromethyl)-1H-pyrazol-1-yl)-2-methylpropan-2-yl)-2-((1R,3R)-1-(2-methyl-6-(2-methyl-2H-pyrazolo[3,4-b]pyridin-5-yl)pyridin-3-yl)-4-oxo-5-azaspiro[2.4]heptan-5-yl)propanamide] was run?
The EC50 was at most 300 nM.

Which EC50 does the source give for `Cc1cn2cc(-c3ccc([C@H]4C[C@@]45CCN([C@H](Cc4cnn(C(F)F)c4)C(=O)NC(C)(C)Cn4nc(C(F)(F)F)cc4-c4cnc(C(F)(F)F)nc4)C5=O)cc3)cnc2n1` (single isomer, unassigned; isomer 1) [Example 102] here?
Its EC50 is at most 300 nM.

For `CC(C)(Cc1ccc(F)cc1)NC(=O)[C@@H](Cc1cnc2ncccn12)NC(=O)[C@H]1C[C@@H]1c1ccc(-c2cnc3nccn3c2)cc1` [Example 87, (1S,2S)-N-((R)-1-((1-(4-Fluorophenyl)-2-methylpropan-2-yl)amino)-3-(imidazo[1,2-a]pyrimidin-3-yl)-1-oxopropan-2-yl)-2-(4-(imidazo[1,2-a]pyrimidin-6-yl)phenyl)cyclopropane-1-carboxamide], which EC50 is on record?
Its EC50 is at most 300 nM.

For `Cn1cc(C[C@@H](NC(=O)[C@H]2C[C@@H]2c2ccc(NC(=O)Nc3ccc(F)cc3)cc2)C(=O)NC(C)(C)Cc2ccc(F)cc2)cn1` [Example 97, (1S,2S)-N—((R)-1-((1-(4-Fluorophenyl)-2-methylpropan-2-yl)amino)-3-(1-methyl-1H-pyrazol-4-yl)-1-oxopropan-2-yl)-2-(4-(3-(4-fluorophenyl)ureido)phenyl)cyclopropane-1-carboxamide], which EC50 is on record?
The EC50 was at most 300 nM.

`Cc1cn2cc(-c3ccc([C@H]4C[C@@]45CCN([C@H](Cc4cnn(C(F)F)c4)C(=O)NC(C)(C)Cn4nc(C(F)(F)F)cc4-c4ccc(=O)n(COP(=O)(O)O)n4)C5=O)c(Cl)c3)cnc2n1` [Example 150, (3-(1-(2-((R)-2-((1S,3R)-1-(2-Chloro-4-(2-methylimidazo[1,2-a]pyrimidin-6-yl)phenyl)-4-oxo-5-azaspiro[2.4]heptan-5-yl)-3-(1-(difluoromethyl)-1H-pyrazol-4-yl)propanamido)-2-methylpropyl)-3-(trifluoromethyl)-1H-pyrazol-5-yl)-6-oxopyridazin-1 (6H)-yl)methyl dihydrogen phosphate] was tested. Which EC50 did it give?
Its EC50 is at most 300 nM.

`Cc1ncc(-c2cc(C(F)(F)F)nn2CC(C)(C)NC(=O)[C@@H](Cc2cnn(C(F)F)c2)NC(=O)[C@H]2C[C@@H]2c2ccc(-c3cnc4nn(C)cc4c3)nc2C(F)(F)F)cn1` [Example 147, (1S,2S)-N—((R)-3-(1-(Difluoromethyl)-1H-pyrazol-4-yl)-1-((2-methyl-1-(5-(2-methylpyrimidin-5-yl)-3-(trifluoromethyl)-1H-pyrazol-1-yl)propan-2-yl)amino)-1-oxopropan-2-yl)-2-(6-(2-methyl-2H-pyrazolo[3,4-b]pyridin-5-yl)-2-(trifluoromethyl)pyridin-3-yl)cyclopropane-1-carboxamide] was tested. Which EC50 did it give?
Its EC50 is at most 300 nM.

For `CC(C)(Cn1cc(C(F)(F)F)cn1)NC(=O)[C@@H](Cc1cnc2ncccn12)NC(=O)[C@H]1C[C@@H]1c1ccc(-c2cnc3nc(C4CC4)cn3c2)cc1` [Example 76, (1S,2S)-2-(4-(2-Cyclopropylimidazo[1,2-a]pyrimidin-6-yl)phenyl)-N-((R)-3-(imidazo[1,2-a]pyrimidin-3-yl)-1-((2-methyl-1-(4-(trifluoromethyl)-1H-pyrazol-1-yl)propan-2-yl)amino)-1-oxopropan-2-yl)cyclopropane-1-carboxamide], which EC50 is on record?
Its EC50 is at most 300 nM.

For `Cc1ncc(-c2cc(C(F)(F)F)nn2CC(C)(C)NC(=O)[C@@H](Cc2cnn(C(F)F)c2)N2CC[C@@]3(C[C@@H]3c3ccc(-c4cnc5nn(C6CC6)cc5c4)nc3C)C2=O)cn1` [Example 179, (R)-2-((1R,3R)-1-(6-(2-cyclopropyl-2H-pyrazolo[3,4-b]pyridin-5-yl)-2-methylpyridin-3-yl)-4-oxo-5-azaspiro[2.4]heptan-5-yl)-3-(1-(difluoromethyl)-1H-pyrazol-4-yl)-N-(2-methyl-1-(5-(2-methylpyrimidin-5-yl)-3-(trifluoromethyl)-1H-pyrazol-1-yl)propan-2-yl)propanamide], which EC50 is on record?
The EC50 was at most 300 nM.

For `COC(=O)c1cc(C(F)(F)F)nn1CC(C)(C)NC(=O)[C@@H](Cc1cnn(C)c1)NC(=O)[C@H]1C[C@@H]1c1ccc(-c2cnc3nc(C(F)(F)F)cn3c2)cc1` [Example 24, Methyl 1-(2-methyl-2-((R)-3-(1-methyl-1H-pyrazol-4-yl)-2-((15,2S)-2-(4-(2-(trifluoromethyl)imidazo [1,2-a]pyrimidin-6-yl)phenyl)cyclopropane-1-carboxamido)propanamido)propyl)-3-(trifluoromethyl)-1H-pyrazole-5-carboxylate], which EC50 is on record?
The EC50 was at most 300 nM.

With `CC(C)(Cn1nc(C(F)(F)F)cc1C1CC1)NC(=O)[C@@H](Cc1cnc2ncccn12)NC(=O)[C@H]1C[C@@H]1c1ccc(NC(=O)C2CC(F)(F)C2)cc1` [Example 40, N-(4-((1S,2S)-2-(((R)-1-((1-(5-cyclopropyl-3-(trifluoromethyl)-1H-pyrazol-1-yl)-2-methylpropan-2-yl)amino)-3-(imidazo[1,2-a]pyrimidin-3-yl)-1-oxopropan-2-yl)carbamoyl)cyclopropyl)phenyl)-3,3-difluorocyclobutane-1-carboxamide] as the molecule, how does the EC50 read?
The EC50 was at most 300 nM.

Which EC50 does the source give for `CC(=O)N1CCN(c2ccc(C3CC34CCN([C@H](Cc3cnn(C(F)F)c3)C(=O)NC(C)(C)Cn3nc(C(F)(F)F)cc3-c3cnc(C)nc3)C4=O)c(C(F)(F)F)n2)CC1` (single isomer, unassigned; isomer 1) [Example 116] here?
The EC50 was at most 300 nM.
